Results published in the supplement of paper PMC12889115.
This is one part of the list. Values are raw readings; no control value is given beside them.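 First-pass screen: polymyxin B was added at a level that permeabilizes the Salmonella outer membrane while sparing the inner membrane. DMSO wells, with and without polymyxin B, defined maximum growth. Because plates differed from one another, each plate's data were ranked separately and the compounds with the lowest OD600 were carried forward as hits.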

Tested on: Salmonella enterica serovar Typhimurium SL1344
Assay: bacterial growth OD600 after 18 h with compound and polymyxin B; higher = more bacterial growth (less inhibition)
Conditions: 50 µM, Mueller-Hinton broth

SMILES	bacterial growth OD600 (polymyxin B 0.75 µg/mL)	bacterial growth OD600 (polymyxin B 1 µg/mL)
COc1cccc(CCC2CCCN(C(=O)c3cc(C)[nH]n3)C2)c1 (centres undefined)	0.765	–
O=C(NC1CC(=O)N(CCc2cccc(Cl)c2)C1)C1CCOCC1 (centres undefined)	–	0.77
COCc1nc2cc(NC(=O)Cc3ccccc3)cc(C(=O)N(C)CCn3nc(C)cc3C)c2n1C	0.892	–
COc1cccc(OCc2nc(C(=O)N(C)Cc3ccc(F)cc3)co2)c1	–	0.715
CCOC(=O)C1(Cc2ccc(Cl)cc2)CCN(C(=O)CCCC(=O)OC)CC1	–	0.741
Fc1cccc(-c2n[nH]c3c2CN(Cc2cccc4c2OCO4)CC3)c1	0.558	–
COc1ccc(CCc2nc3cccnc3n2C2CCN(C(=O)C3CCCCCN3C)CC2)cc1 (centres undefined)	0.915	–
O=C(CCN1Cc2ccccc2OC(c2ccccc2)C1)NCCn1cccn1 (centres undefined)	0.925	–
CCOC(=O)C1(Cc2cccc(OC)c2)CCN(Cc2c[nH]c3ccccc23)CC1	–	0.593
Cc1nc2ccc(C(=O)N3CCCC(CNC(=O)c4ccc(F)cc4)C3)cc2nc1C (centres undefined)	–	0.953
O=C(NCCC1COc2ccccc2O1)c1ccc(N2CCC(O)CC2)nc1 (centres undefined)	0.812	–
Cc1nc(N2CCC(C(=O)NCc3cnn(C)c3)CC2)nc2ccc(C(C)C)cc12	0.859	–
COc1ccc(CN(C)C(=O)CC2(c3ccccc3F)CC(=O)N(C3CCCCC3)C2=O)cc1OC (centres undefined)	0.037	–
O=C(NCCc1cscn1)c1ccc(OC2CCN(Cc3ccccn3)CC2)cc1	–	1.21
CC(C)(C)CN1CCC(C(=O)Nc2ccc(Oc3cccnc3)cc2)CC1	–	0.305
CC(C)n1cc(C(=O)NCC2CCCCC2)c(=O)c(C(=O)N2CCN(C(=O)c3cccs3)CC2)c1	0.812	–
CCS(=O)(=O)NCc1c(C)ncc2c1CCN(C(=O)C1(c3ccc(OC)cc3)CCCC1)C2	0.979	–
CCN1CCN(C2(C(=O)N(C)CCOC)Cc3ccccc3C2)CC1	0.773	–
Cn1cc(CNCCN2CCC(O)CC2)c(-c2ccc(Oc3ccccc3)cc2)n1	–	0.83

Looked up by structure from the list above, two records:
SMILES	bacterial growth OD600 (polymyxin B 0.75 µg/mL)	bacterial growth OD600 (polymyxin B 1 µg/mL)
COc1cccc(CCC2CCCN(C(=O)c3cc(C)[nH]n3)C2)c1 (centres undefined)	0.765	–
COc1ccc(CCc2nc3cccnc3n2C2CCN(C(=O)C3CCCCCN3C)CC2)cc1 (centres undefined)	0.915	–
